# From patent publication US20030118636A1, “Delivery of small hydrophilic molecules packaged into lipid vesicles” (priority 2001, published 2003)
# Test: Subcutaneous pH reduction in conscious rats
# Type: in vivo, rat
# Settings: 0.5 ml, pH 6.1, s.c.
structure (smiles),measurement,setting,value
O=S(=O)(O)CCN1CCOCC1 [MES buffer],time for subcutaneous pH to return to physiological pH (pH 7.4),50 mM MES,≤ 10 min
same,time for subcutaneous pH to return to physiological pH (pH 7.4),100 mM MES,≤ 10 min
same,time subcutaneous pH remained below pH 6.5,250 mM MES,more than 30 min
